Data as given in PubChem BioAssay AID686943 (Drosophila RNAi Screening Center, 2013).

Assay: 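Fly genes whose loss alters ERK activation after insulin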 (primary screen)
Cell system: Drosophila S2R+ haemocyte-like cells expressing YFP-tagged ERK (Rolled)
Reagent: long dsRNA against Drosophila genes
Challenge: insulin stimulation versus unstimulated cells; dose and duration not given
Detection: 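Per-plate z-scores of phospho-ERK immunostaining normalised to YFP-tagged ERK, measured with and without insulin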
Reading the numbers: replicate 1, z-score of dpERK with insulin and replicate 2, z-score of dpERK with insulin: higher = more active ERK per ERK-YFP after insulin
The deposit covers about 23,000 reagents; shown is an unselected part of those that have a named target and a result. 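Extra replicates exist only for a retested subset of genes; insulin dose and duration not given; both raised and lowered dpERK matter.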 Reagents against one gene are numbered here. A plus sign joins genes that one reagent is predicted to hit. Not all columns of the deposit are shown. Not given: the amount of reagent, the time to read-out.

{"gene knocked down": "CG7290", "dsRNA no.": 1, "replicate 1, z-score of dpERK with insulin": -0.73, "replicate 2, z-score of dpERK with insulin": -0.36}
{"gene knocked down": "cato", "dsRNA no.": 1, "replicate 1, z-score of dpERK with insulin": 0.01, "replicate 2, z-score of dpERK with insulin": -0.06}
{"gene knocked down": "CG14075", "dsRNA no.": 1, "replicate 1, z-score of dpERK with insulin": -0.09, "replicate 2, z-score of dpERK with insulin": -0.08}
{"gene knocked down": "ps", "dsRNA no.": 1, "replicate 1, z-score of dpERK with insulin": -0.46, "replicate 2, z-score of dpERK with insulin": -1.51}
{"gene knocked down": "ps", "dsRNA no.": 2, "replicate 1, z-score of dpERK with insulin": -3.21, "replicate 2, z-score of dpERK with insulin": -2.43}
{"gene knocked down": "ps", "dsRNA no.": 3, "replicate 1, z-score of dpERK with insulin": -1.57, "replicate 2, z-score of dpERK with insulin": -1.66}
{"gene knocked down": "ps", "dsRNA no.": 4, "replicate 1, z-score of dpERK with insulin": -1.51, "replicate 2, z-score of dpERK with insulin": -1.77}
{"gene knocked down": "CR44003 + CG44002", "dsRNA no.": 1, "replicate 1, z-score of dpERK with insulin": -0.01, "replicate 2, z-score of dpERK with insulin": -0.23}
{"gene knocked down": "CR44003 + CG44002", "dsRNA no.": 2, "replicate 1, z-score of dpERK with insulin": 0.28, "replicate 2, z-score of dpERK with insulin": 0.76}
{"gene knocked down": "CG42586 + CG31775", "dsRNA no.": 1, "replicate 1, z-score of dpERK with insulin": 0.96, "replicate 2, z-score of dpERK with insulin": 0.95}
{"gene knocked down": "Nepl3", "dsRNA no.": 1, "replicate 1, z-score of dpERK with insulin": 0, "replicate 2, z-score of dpERK with insulin": -0.72}
{"gene knocked down": "Pdhb", "dsRNA no.": 1, "replicate 1, z-score of dpERK with insulin": 0.01, "replicate 2, z-score of dpERK with insulin": 0.58}
{"gene knocked down": "CG7016", "dsRNA no.": 1, "replicate 1, z-score of dpERK with insulin": 0.79, "replicate 2, z-score of dpERK with insulin": 0.28}
{"gene knocked down": "CG17715", "dsRNA no.": 1, "replicate 1, z-score of dpERK with insulin": 0.68, "replicate 2, z-score of dpERK with insulin": 1.23}
{"gene knocked down": "Dsp1", "dsRNA no.": 1, "replicate 1, z-score of dpERK with insulin": 0, "replicate 2, z-score of dpERK with insulin": -1.69}
{"gene knocked down": "CG17219", "dsRNA no.": 1, "replicate 1, z-score of dpERK with insulin": 0.56, "replicate 2, z-score of dpERK with insulin": 0.01}
{"gene knocked down": "wech", "dsRNA no.": 1, "replicate 1, z-score of dpERK with insulin": -0.49, "replicate 2, z-score of dpERK with insulin": -0.34}
{"gene knocked down": "Lapsyn", "dsRNA no.": 1, "replicate 1, z-score of dpERK with insulin": 0.39, "replicate 2, z-score of dpERK with insulin": 0.46}
{"gene knocked down": "Atg10", "dsRNA no.": 1, "replicate 1, z-score of dpERK with insulin": 0.18, "replicate 2, z-score of dpERK with insulin": 0.18}
{"gene knocked down": "mRpL12", "dsRNA no.": 1, "replicate 1, z-score of dpERK with insulin": 0.92, "replicate 2, z-score of dpERK with insulin": 0.34}
{"gene knocked down": "Sdr", "dsRNA no.": 1, "replicate 1, z-score of dpERK with insulin": -0.19, "replicate 2, z-score of dpERK with insulin": 0.38}
{"gene knocked down": "CG13055", "dsRNA no.": 1, "replicate 1, z-score of dpERK with insulin": -0.21, "replicate 2, z-score of dpERK with insulin": 0.16}
{"gene knocked down": "Alg10", "dsRNA no.": 1, "replicate 1, z-score of dpERK with insulin": -0.02, "replicate 2, z-score of dpERK with insulin": -0.15}
{"gene knocked down": "CG12782", "dsRNA no.": 1, "replicate 1, z-score of dpERK with insulin": 0.17, "replicate 2, z-score of dpERK with insulin": -1.74}
{"gene knocked down": "CG3640", "dsRNA no.": 1, "replicate 1, z-score of dpERK with insulin": -0.33, "replicate 2, z-score of dpERK with insulin": 0.42}
{"gene knocked down": "CG5003", "dsRNA no.": 1, "replicate 1, z-score of dpERK with insulin": 0.16, "replicate 2, z-score of dpERK with insulin": -0.35}
{"gene knocked down": "CNPYb", "dsRNA no.": 1, "replicate 1, z-score of dpERK with insulin": 0.33, "replicate 2, z-score of dpERK with insulin": 0.19}
{"gene knocked down": "Pfdn6", "dsRNA no.": 1, "replicate 1, z-score of dpERK with insulin": -0.13, "replicate 2, z-score of dpERK with insulin": 1.4}
{"gene knocked down": "CG10472", "dsRNA no.": 1, "replicate 1, z-score of dpERK with insulin": 1.34, "replicate 2, z-score of dpERK with insulin": -0.21}
{"gene knocked down": "CG6763", "dsRNA no.": 1, "replicate 1, z-score of dpERK with insulin": -0.41, "replicate 2, z-score of dpERK with insulin": 0}
{"gene knocked down": "Ubc4", "dsRNA no.": 1, "replicate 1, z-score of dpERK with insulin": 0.96, "replicate 2, z-score of dpERK with insulin": -0.15}

A portion from the list above, for reference:
{"gene knocked down": "CG17219", "dsRNA no.": 1, "replicate 1, z-score of dpERK with insulin": 0.56, "replicate 2, z-score of dpERK with insulin": 0.01}
{"gene knocked down": "wech", "dsRNA no.": 1, "replicate 1, z-score of dpERK with insulin": -0.49, "replicate 2, z-score of dpERK with insulin": -0.34}
{"gene knocked down": "Lapsyn", "dsRNA no.": 1, "replicate 1, z-score of dpERK with insulin": 0.39, "replicate 2, z-score of dpERK with insulin": 0.46}
{"gene knocked down": "Atg10", "dsRNA no.": 1, "replicate 1, z-score of dpERK with insulin": 0.18, "replicate 2, z-score of dpERK with insulin": 0.18}
